Changes are numbered by the printed parent chain. No constants are given. Whether binding was seen depends on the method and setting. In cells and extracts the contact can be indirect. Binding can be weak; no strength is given. For part of these data: Where a sequence is shown, tags or fusion partners need not be part of it. Blank lines part the entries; values can stand above or below the substance they belong to.
Columns and labels:
EGFP-ATAD3A = target: T1, EGFP-ATAD3A (UniProt Q3KRE0); experiment: FRET or BRET; FRET by acceptor photobleaching in NRCMs transfected with EGFP-ATAD3A and mCherry-SIRT3; 750 nm two-photon laser
T1 sequence: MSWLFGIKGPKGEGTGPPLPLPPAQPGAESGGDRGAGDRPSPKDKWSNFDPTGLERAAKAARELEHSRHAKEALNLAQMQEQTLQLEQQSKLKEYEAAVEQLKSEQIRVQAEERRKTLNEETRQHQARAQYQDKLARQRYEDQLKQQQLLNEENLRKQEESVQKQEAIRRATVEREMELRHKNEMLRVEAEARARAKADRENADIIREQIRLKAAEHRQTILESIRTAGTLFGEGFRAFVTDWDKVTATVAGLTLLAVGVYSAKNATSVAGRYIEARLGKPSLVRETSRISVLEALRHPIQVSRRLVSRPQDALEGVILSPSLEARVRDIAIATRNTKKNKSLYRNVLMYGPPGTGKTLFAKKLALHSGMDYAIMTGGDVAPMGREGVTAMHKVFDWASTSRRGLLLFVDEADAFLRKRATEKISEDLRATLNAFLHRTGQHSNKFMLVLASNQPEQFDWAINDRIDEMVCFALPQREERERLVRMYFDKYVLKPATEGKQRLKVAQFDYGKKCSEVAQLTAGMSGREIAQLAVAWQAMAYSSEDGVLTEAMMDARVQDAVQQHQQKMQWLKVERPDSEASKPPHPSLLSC

[1] = target: T2, ATAD3A fusion for bimolecular fluorescence complementation (UniProt Q3KRE0); experiment: split reporter; bimolecular fluorescence complementation in NRCMs
T2 sequence: T1 sequence

[2] = target: T3, ATAD3A, endogenous in mouse heart (mouse (endogenous in mouse heart)) (UniProt Q925I1); experiment: co-IP; endogenous proteins in mouse heart tissue lysate
T3 sequence: T1 sequence with S30G, N75S, N119T, F232L, N444S, A522E, E579Q, A580T, S581N

binding (EGFP-ATAD3A): binds
Substance: mCherry-SIRT3 (enzyme)

binding [1]: binds
Substance: SIRT3 fusion for bimolecular fluorescence complementation (enzyme)

binding [2]: binds
Substance: SIRT3, endogenous in mouse heart (enzyme)

From paper PMC10797690, “The SIRT3-ATAD3A axis regulates MAM dynamics and mitochondrial calcium homeostasis in cardiac hypertrophy” (International Journal of Biological Sciences, 2024)
